Primary screen of a compound library

Chains of the proteins cited; added tags and fusions are not shown.
UniProt E9BF75, entry or part of it: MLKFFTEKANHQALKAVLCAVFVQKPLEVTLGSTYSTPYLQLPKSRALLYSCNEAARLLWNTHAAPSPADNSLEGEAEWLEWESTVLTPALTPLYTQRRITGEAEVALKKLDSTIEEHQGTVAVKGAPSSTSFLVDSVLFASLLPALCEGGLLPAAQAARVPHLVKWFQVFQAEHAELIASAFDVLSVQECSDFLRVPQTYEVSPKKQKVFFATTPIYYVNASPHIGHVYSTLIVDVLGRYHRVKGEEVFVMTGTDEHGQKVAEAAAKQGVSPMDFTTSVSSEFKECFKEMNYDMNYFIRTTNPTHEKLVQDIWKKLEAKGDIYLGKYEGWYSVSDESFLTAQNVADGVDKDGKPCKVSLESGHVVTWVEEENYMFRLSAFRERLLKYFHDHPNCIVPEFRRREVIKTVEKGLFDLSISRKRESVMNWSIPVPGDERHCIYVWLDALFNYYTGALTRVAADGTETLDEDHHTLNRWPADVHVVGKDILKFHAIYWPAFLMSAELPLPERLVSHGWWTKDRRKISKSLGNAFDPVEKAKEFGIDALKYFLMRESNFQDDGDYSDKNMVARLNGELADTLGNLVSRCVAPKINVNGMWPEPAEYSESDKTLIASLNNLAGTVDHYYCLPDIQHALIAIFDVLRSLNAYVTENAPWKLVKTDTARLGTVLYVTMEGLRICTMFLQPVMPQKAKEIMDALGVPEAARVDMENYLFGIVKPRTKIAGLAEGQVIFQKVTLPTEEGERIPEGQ

From ChEMBL document CHEMBL3988442, “University of Dundee, Small-Polar-MMV Screening Library” (2021).

Mtb heat-shock: 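Assay on Mycobacterium tuberculosis, filed only as a heat shock assay from Cornell; the read-out is not stated. The concentration is filed as 10 mM, unlikely as a test dose, so the dose is not known. Higher reads as stronger inhibition (inferred: compounds with an IC50 in retests scored well above the rest). Of about 69,000 compounds tested this way, about 930 (1.4%) reached 50% or more in at least one test.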
Mtb growth Cornell: 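Whole-cell assay for inhibitors of Mycobacterium tuberculosis growth, labelled Cornell in the record; the read-out is not stated. The concentration is filed as 10 mM, unlikely as a test dose, so the dose is not known. Higher means stronger inhibition (inferred from two other growth screens of the library). Size under these conditions: about 53,000 compounds, about 900 of them at 50% or above in at least one test.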
LdMetRS: 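Methionyl-tRNA synthetase (putative), Leishmania donovani (UniProt E9BF75). Primary screen of methionyl-tRNA synthetase; the read-out is not stated. The test concentration is not given. Values are per cent inhibition. About 68,000 compounds were tested under these conditions; 0.035% (about 24) showed 50% or more at least once.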

All values are in %. The controls that fix the scale are not given in the record; negative values are as filed. The compounds are a random part of those screened.

Result for Cc1cnn(C2CN(C(C)c3nc(-c4ccccc4)no3)C2)c1 (stereo not drawn) was Mtb heat-shock: 8.603%; Mtb growth Cornell: 46.37%; LdMetRS: -0.2786%.
Result for Cc1nn(C)c2nc(NCCN3CCCC(C(N)=O)C3)sc12 (stereo not drawn) was Mtb heat-shock: 17.43%; Mtb growth Cornell: -0.3635%; LdMetRS: 14.21%.
Result for CCc1noc(CN2CCOC3(CCCC3)C2)n1 was Mtb heat-shock: -4.856%; Mtb growth Cornell: 22.03%; LdMetRS: 17.76%.
Result for Cc1nc(-c2ccc(F)cc2)nc2c1CCN(C(=O)CN(C)C)CC2 was Mtb heat-shock: 19.96%; Mtb growth Cornell: 15.63%; LdMetRS: 10.03%.
Result for CCCc1n[nH]c(C2CN(CCNS(C)(=O)=O)CCO2)n1 (stereo not drawn) was Mtb heat-shock: -8.77%; Mtb growth Cornell: -25.55%; LdMetRS: 8.883%.
Result for CC(C)c1nnc2n1CCN(CC(=O)N1CCc3ccccc3C1)C2 was Mtb heat-shock: -0.03823%; LdMetRS: 8.163%.
Result for O=C1CC[C@H]2[C@H](CCN2c2ncccn2)N1c1ccccc1 was LdMetRS: 15.06%.
Result for Nc1nnc(C2CC(=O)N(c3ccccc3)C2)s1 (stereo not drawn) was Mtb heat-shock: -4.65%; Mtb growth Cornell: -28%; LdMetRS: 16.71%.
Result for Cc1cnn(C2(C(=O)O)CCN(c3ccnc4cc(Cl)ccc34)CC2)c1 was Mtb heat-shock: -11.39%; LdMetRS: 4.658%.
Result for N#CCC(=O)NCc1nnc2n1CCN(Cc1ccsc1)C2 was Mtb heat-shock: -1.509%; Mtb growth Cornell: -4.94%; LdMetRS: 4.348%.
Result for CCS(=O)(=O)N1CCCC(c2nccn2Cc2ccccn2)C1 (stereo not drawn) was Mtb heat-shock: 13.42%; Mtb growth Cornell: 22.18%; LdMetRS: 14.81%.
Result for O=C(O)C(F)(F)F.O=C(O)C(F)(F)F.[H][C@@]12OCCN(CC3CCOCC3)[C@@]1([H])CC[C@H]2OCc1ccncc1 was Mtb heat-shock: -2.91%; Mtb growth Cornell: -33.58%.
Result for O=C(O)C(F)(F)F.[H][C@@]12CCN(Cc3ccoc3)C[C@]1([H])OCCN(c1ccccc1)C2=O was Mtb heat-shock: -198.8%.
Result for COc1ccc(Cl)cc1CN1CC(n2cccn2)C1 was Mtb heat-shock: -3.723%; Mtb growth Cornell: 8.724%; LdMetRS: 12.57%.
Result for Cc1noc(C[C@@H]2COC[C@H]3CN(S(=O)(=O)C4CC4)C[C@@H]23)n1 was LdMetRS: 10.8%.
Result for O=C(O)C(F)(F)F.O=C(c1ccccn1)N1CCOC2(COCCN(Cc3cc[nH]n3)C2)C1 (stereo not drawn) was Mtb heat-shock: -9.111%; Mtb growth Cornell: -19.49%.
Result for O=C(CN1CCCCC1)N1CCC(c2cc(=O)n3c(n2)CCCCC3)C1.O=C(O)CC(O)(CC(=O)O)C(=O)O (stereo not drawn) was Mtb heat-shock: -5.925%; Mtb growth Cornell: -5.661%.
Result for COc1cc(N2CC3(CCN(S(C)(=O)=O)C3)C2)ncn1.O=C(O)C(F)(F)F was Mtb heat-shock: -14.68%; Mtb growth Cornell: -13.36%.
Result for Cc1ccc(S(C)(=O)=O)cc1C(=O)N1CCCC(n2cncn2)C1 (stereo not drawn) was Mtb heat-shock: 1.455%; LdMetRS: 17.49%.
Result for CCc1nc(C2CCCN(C(=O)c3ccc(OC(C)C)nc3)C2)no1 (stereo not drawn) was Mtb heat-shock: -18.98%; LdMetRS: 0%.
Result for Cn1ccnc1CNC1CCCN(Cc2noc(C3CC3)n2)C1 (stereo not drawn) was Mtb heat-shock: 25.31%; LdMetRS: 5.435%.
Result for CSCc1noc(C2CCC(=O)N(CCc3ccccc3)C2)n1 (stereo not drawn) was Mtb heat-shock: -26.89%; Mtb growth Cornell: -3.12%; LdMetRS: 10.61%.
Result for O=C(O)C(F)(F)F.O=C(O)C(F)(F)F.O=C(O)C(F)(F)F.[H][C@@]12CN(Cc3cnn(C)c3)C[C@]1([H])OCCN2CCN(C)C was Mtb heat-shock: -13.23%; Mtb growth Cornell: 27.7%.
Result for Cc1nc(NCC2CC2)nc2c1COCC21CCN(CC(=O)N(C)C)C1 (stereo not drawn) was Mtb heat-shock: 2.151%; Mtb growth Cornell: -16.56%; LdMetRS: 11.44%.
Result for O=C(OCC1CCCN1)c1cccc(NC(=O)c2ccco2)c1 (stereo not drawn) was LdMetRS: 10.57%.
Result for O=C(CCc1ccsc1)Nc1cnccc1O was Mtb heat-shock: 19.33%; LdMetRS: 8.289%.
Result for CCS(=O)(=O)NCc1nc(C)cc(N2CCOCC2)n1 was Mtb heat-shock: -12.72%; Mtb growth Cornell: 9.493%; LdMetRS: -2.542%.
Result for CC(C)c1ccc(-n2ncc(C(=O)NCC3COC(C)(C)O3)c2N)cc1 (stereo not drawn) was Mtb heat-shock: 17.15%; Mtb growth Cornell: -13.83%; LdMetRS: 7.5%.
Result for Cc1ncc(CN2Cc3ccccc3O[C@]3(CC[C@H](CO)CC3)C2)cn1.Cl was Mtb heat-shock: -5.573%; Mtb growth Cornell: -31.43%.
Result for OCc1c(Cl)ncn1-c1ccccc1 was Mtb heat-shock: -3.58%; Mtb growth Cornell: 0.6888%; LdMetRS: 20.92%.
Result for COc1ccc(Oc2nccc3occc23)cc1CN1CCCC1 was Mtb heat-shock: 16.11%; Mtb growth Cornell: 16.48%; LdMetRS: 39.58%.
Result for O=C1CCC(c2ccc(Cl)cc2)=NN1CN1CCCCCC1 was Mtb heat-shock: 14.97%; Mtb growth Cornell: 15.94%; LdMetRS: 13.6%.

Repeated from the top, 3 entries:

| SMILES | Mtb heat-shock | Mtb growth Cornell | LdMetRS |
|---|---|---|---|
| `Cc1cnn(C2CN(C(C)c3nc(-c4ccccc4)no3)C2)c1` (stereo not drawn) | 8.603% | 46.37% | -0.2786% |
| `Cc1nn(C)c2nc(NCCN3CCCC(C(N)=O)C3)sc12` (stereo not drawn) | 17.43% | -0.3635% | 14.21% |
| `CCc1noc(CN2CCOC3(CCCC3)C2)n1` | -4.856% | 22.03% | 17.76% |